# Laboratory results published in the supplement of paper PMC5949888.
# Most values lie at the floor of the assay. Slopes are relative: functional sequences can read slightly below zero.
# System: Saccharomyces cerevisiae PS128 hsf1 delta, HSF1(1-493) fusion
# Assay: growth estimate (transactivation domain function in HSF1 fusion, heat-shock survival) (a.u. (slope of normalised read count over time)); higher = stronger growth at 37°C, i.e. more transactivation activity
# Details: library: random library
# Method: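 Random 60-nt DNA library encoding peptides of up to 20 aa, fused to the C-terminus of yeast HSF1 residues 1-493 (C-terminal TAD deleted) and expressed from the native HSF1 promoter on a CEN plasmid in hsf1-deleted S. cerevisiae PS128. Cells were selected at 37°C on -trp 5-FOA plates for 0, 2, 4, 6 and 8 days and amplicons were sequenced. Growth estimate is the slope of a robust linear fit of total-sum-normalised read counts (normalised to the first time point) over time, using at least 2 replicates. Sequences are classed functional (TAD activity) above a threshold of -0.13, set from stop-codon control sequences.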
row,Substance,growth estimate
1,ILQRTSI,< -0.25
2,RRVGSFTTTTFFADKHYSKR,< -0.25
3,EGRFSIHA,< -0.25
4,FCLVGSYGAAGSAPCTAAAG,< -0.25
5,FEVAISTP,< -0.25
6,PSSEGSSPLTGDS,< -0.25
7,RKSAVTWKFDEVGHDHATRK,< -0.25
8,IVPTKCS,< -0.25
9,WQPSAVSSWRDRTWLEKGYR,< -0.25
10,WNDPTDLDVLLTGVATLLIA,< -0.25
11,QLGPGRPSAAALGQVANVLN,< -0.25
12,QGGGLRWS,< -0.25
13,RLAVVHTEYQRTGVLLTL,< -0.25
14,LDMMLPK,< -0.25
15,FCV,< -0.25
16,LHSGGYEGLL,< -0.25
17,GLGAPR,< -0.25
18,SISKLCSDRT,< -0.25
19,RFSPANHVRYFYSPGRDLHA,< -0.25
20,RPSEVVCTVVSPRSTST,< -0.25
21,RIKRNDIVTDPPFVMEPNRW,< -0.25
22,ALRVTKAWPFGKDWPYITIV,< -0.25
23,GEQDRCG,< -0.25
24,SYAVGVLSRALSTWDFAVKV,-0.232
25,RYPTGH,< -0.25
26,SRW,< -0.25

row,Substance,growth estimate
1,VDSSCIGLRRLSII,< -0.25
2,HDDIRNRVRSGLLRKVQPLP,< -0.25
3,CTPFLIMRGTNPSSRG,< -0.25
4,RGGAVCAWKERTKRLYTCST,< -0.25
5,DLSVAGPLGQRRLSPPSVRW,< -0.25
6,WQR,< -0.25
7,STRHSTPILLGHWSRILRQT,< -0.25
8,VGC,< -0.25
9,VSHHLCTCALE,< -0.25
10,WTE,< -0.25
11,ILPLMAPRSSGRYVSRIRYS,-0.246
12,WLRNYVGDRKQQ,< -0.25
13,PKRRTMPGLNCAGQCDMAER,< -0.25
14,GRETRSPVGARKETMTGSAI,< -0.25
15,RRRLRRMQLIYGPWSPRC,< -0.25
16,VGIGLIELGQSVRVRFTRVM,< -0.25
17,ATALNLLSGILDPWESDWTN,-0.176
18,TEN,< -0.25
19,LDIGL,< -0.25
20,CSG,< -0.25
21,LRELKF,< -0.25
22,ADAQYRKEKGAGL,< -0.25
23,LPTFRDCTDGQKGSKDRESR,< -0.25
24,GAPRCQHTYKSRHDHGFRG,< -0.25
25,KENRSRRCDS,< -0.25
26,KMWNSATQMEAHFLAAKWHT,-0.246

row,Substance,growth estimate
1,YKREIEITRRGLTGLLGNST,< -0.25
2,VMRAFSHGEYAREETAASSD,< -0.25
3,FDVRGLGS,< -0.25
4,ESQSFNFWSNY,< -0.25
5,RGYRRSFHKRIGTGDEMCTV,< -0.25
6,SQCELTPHIYLAGSPGLPLF,< -0.25
7,GFGRSHERVRCRKFSSWPNG,< -0.25
8,VPMV,< -0.25
9,RGHG,< -0.25
10,FGSRLLTPEPV,< -0.25
11,GSIKTGKIGPRRAPWFTCHH,< -0.25
12,CSASCS,< -0.25
13,SFSERLQWSLPVNSSVDGHY,< -0.25
14,QVLKWR,< -0.25
15,KSCGSPNASELLFPFSAGLT,< -0.25
16,EKETVTERVSSNSLRIMCNT,< -0.25
17,TFVGAQR,< -0.25
18,GYPGPPSVKFSRGSRVRICS,< -0.25
19,TGDNGTDI,< -0.25
20,PGGYVGSSSESGVDQHVSFS,< -0.25
21,LQLGRLC,< -0.25
22,RTGERTAQCAKV,< -0.25
23,WGGAGHCDWNFQSISGA,-0.162
24,HVKHTLGKSVRFLPFLCFPR,< -0.25
25,DVHGSGPFCI,< -0.25
26,LSGGREVRLLDQYCCEV,< -0.25

# Rewritten as tab-separated lines: entries from further up
row	Substance	growth estimate
21	LQLGRLC	< -0.25
22	RTGERTAQCAKV	< -0.25

# Later entries.

row,Substance,growth estimate
1,LNYRWFFSLRESTQMSLGHH,-0.243
2,MKELTPFV,-0.161
3,LVFENPVT,< -0.25
4,QMIVL,< -0.25
5,IRTNEHPKPLSQMCEHMAHP,< -0.25
6,QYTIENG,< -0.25
7,NGNLLVAAKGRRAQGTILQS,< -0.25
8,LTGDTLEGPE,< -0.25
9,LFQSTFPRCSSGPPGPVGFK,< -0.25
10,SKRGMILNLLQGASRGLQSA,< -0.25
11,MARTRRPRNLVGRGDAGLGT,< -0.25
12,YRQSRGSVASGT,< -0.25
13,YHVE,< -0.25
14,KMVHFVVVFG,< -0.25
15,SVILDIIHCRQYRNLRPDGP,< -0.25
16,DWF,< -0.25
17,ADEYRSRR,< -0.25
18,YVME,< -0.25
19,SAGPNEKCLHNSALEPG,< -0.25
20,NSAGRKVTYMGTLRSTCPDH,< -0.25
21,TGN,< -0.25
22,LTVHRMVRLTQRIRLQHLGW,-0.25
23,EYVCAYSFVKRSSGENPIVI,< -0.25
24,RRSSDD,< -0.25
25,SAGGASTAKYSFYLREVNSH,< -0.25
26,EKSAGSPGTRVLDHSRNARC,< -0.25

# Nothing new here: an excerpt of the list.
row,Substance,growth estimate
20,PGGYVGSSSESGVDQHVSFS,< -0.25
21,LQLGRLC,< -0.25

# The list goes on.

row,Substance,growth estimate
1,RFGGAYGGNA,< -0.25
2,QPSAKAPISGAIVLRKFTGA,< -0.25
3,IQDS,< -0.25
4,TSCFLVCLCPHV,< -0.25
5,LVSCG,< -0.25
6,LLYAELGQKSEEDVRV,< -0.25
7,RICRLMMVLCALLAGVPSKG,< -0.25
8,CMIAFDCFAVSPVVIPESSI,< -0.25
9,GFMCTSYELQTRITLIGR,< -0.25
10,FSWIETASDK,< -0.25
11,KRYRTPCLRDRSCMSYRLHS,< -0.25
12,GGDKQVS,< -0.25
13,VSQRSRFKLNETTRVW,< -0.25
14,AQDYRGKWRVE,< -0.25
15,IERYTVLTGPLHRQQVNS,< -0.25
16,VIATCSYLLAMCKMATELSG,< -0.25
17,RVASGRREKLLANKRIIGP,< -0.25
18,SSEEDFAFIRRSAWTRTWCG,< -0.25
19,IGRSWTYVYRQAKAM,< -0.25
20,PYSGISFSKVTP,< -0.25
21,LGARFKSVLSVQVTTRTYNP,< -0.25
22,EFTQAAR,< -0.25
23,DMRHSRACCTLRIFENGRRG,< -0.25
24,GILRSFLSKAILGGLIWVGS,< -0.25
25,MGERTNHVR,< -0.25
26,RGALFNAILIRLDFAFSPTE,< -0.25

row,Substance,growth estimate
1,DGVEEYSIPRGILPGYILAW,< -0.25
2,RFGSCWFRPLDVCFRYALGF,< -0.25
3,PPQDMGAPWPRGASSYWAGV,< -0.25
4,AWGSNLRCPTGLLMDSRTQR,< -0.25
5,PGQE,< -0.25
6,KSPTPIVEQVN,< -0.25
7,YQIE,< -0.25
8,IEGSKTRRRPVDKCRKGRDD,< -0.25
9,VGQVFRKQLAESRRKQRNNK,< -0.25
10,FSVLD,< -0.25
11,LDQKG,< -0.25
12,ESRAQSTGFTRGISCGA,< -0.25
13,SVFGIGPGDFSRRSI,< -0.25
14,MILRHSCPFNTMRPTDPPRR,< -0.25
15,SSPTAIRGAVPFSFK,< -0.25
16,SREIGVHRC,< -0.25
17,CRLVWSSRDVCTER,< -0.25
18,QQVIVFHREQIRSLVSLGRH,< -0.25
19,YPLTVW,< -0.25
20,CPESAKRALMTGGRTGAMGV,< -0.25
21,KFCPG,< -0.25
22,SVREAEYISGGGD,< -0.25
23,FIRASICFGRRSVLA,< -0.25
24,ECGVGMWTPTVSIGAPNNGT,< -0.25

# Reprinted at random: 2 entries already listed, in no set order.
row,Substance,growth estimate
3,PPQDMGAPWPRGASSYWAGV,< -0.25
19,LDIGL,< -0.25
